The text below walks through data of article PMC6028455.

By UniProt entry, the sequences of proteins in these tests, tags left out.
UniProt Q64373: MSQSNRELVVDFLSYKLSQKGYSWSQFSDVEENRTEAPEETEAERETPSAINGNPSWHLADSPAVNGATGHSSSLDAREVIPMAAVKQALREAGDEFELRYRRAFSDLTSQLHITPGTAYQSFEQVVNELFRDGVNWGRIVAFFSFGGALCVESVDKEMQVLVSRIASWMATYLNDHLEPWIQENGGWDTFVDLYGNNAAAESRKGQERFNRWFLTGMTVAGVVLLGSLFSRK
UniProt P20152: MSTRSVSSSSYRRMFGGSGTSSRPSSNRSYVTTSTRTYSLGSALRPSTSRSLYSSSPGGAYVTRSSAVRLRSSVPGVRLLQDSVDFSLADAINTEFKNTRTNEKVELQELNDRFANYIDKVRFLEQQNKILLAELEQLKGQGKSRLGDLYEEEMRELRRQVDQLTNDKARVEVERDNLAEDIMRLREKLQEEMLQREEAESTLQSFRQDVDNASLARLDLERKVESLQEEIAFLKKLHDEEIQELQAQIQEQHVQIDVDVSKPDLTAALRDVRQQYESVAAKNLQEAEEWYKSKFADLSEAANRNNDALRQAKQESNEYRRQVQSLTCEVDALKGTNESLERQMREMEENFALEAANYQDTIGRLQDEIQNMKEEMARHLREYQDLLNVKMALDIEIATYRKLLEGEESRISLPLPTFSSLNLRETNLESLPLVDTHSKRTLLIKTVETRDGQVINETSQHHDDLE

Test [1] has as its target BCL-xL (mouse (endogenous in embryonic fibroblasts)) (UniProt Q64373). The experiment in a line: co-IP; immunoprecipitation with anti-14-3-3 or anti-BCL-xL antibody, immunoblotting for BAD; Bad-/- fibroblasts expressing WT BAD or BAD(S26D) treated with cytotoxic dose TNFα (80 ng/ml), or WT BAD or BAD(S26A) treated with non-cytotoxic dose TNFα (5 ng/ml), various durations. (In general: In western blotting, separated proteins are transferred to a membrane and probed.)

For test [2], the target named is Vimentin, endogenous in WT fibroblasts (mouse (endogenous in embryonic fibroblasts)) (UniProt P20152). The experiment in a line: proximity ligation; Duolink in situ fluorescent detection reagents in WT fibroblasts, confocal imaging; resting cells and cells treated with cytotoxic dose TNFα.

No constants are given. Whether binding was seen depends on the method and setting. Binding seen in cells or lysates may run through a third protein. Some results given as binding are weak or reduced against the parent protein; the word gives no strength.

B1: BAD(S26A) mutant ectopically expressed in Bad-/- fibroblasts (protein, UniProt Q61337 1-204)
chain: MGTPKQPSLAPAHALGLRKSDPGIRALGSDAGGRRWRPAAQSMFQIPEFEPSEQEDASATDRGLGPSLTEDQPGPYLAPGLLGSNIHQQGRAATNSHHGGAGAMETRSRHSSYPAGTEEDEGMEEELSPFRGRSRSAPPNLWAAQRYGRELRRMSDEFEGSFKGLPRPKSAGTATQMRQSAGWTRIIQSWWDRNLGKGGSTPSQ
For B1, the binding result in test [1] is on record as “binds”.

B2: BAD(S26D) mutant ectopically expressed in Bad-/- fibroblasts (protein, UniProt Q61337 1-204)
chain: MGTPKQPSLAPAHALGLRKSDPGIRDLGSDAGGRRWRPAAQSMFQIPEFEPSEQEDASATDRGLGPSLTEDQPGPYLAPGLLGSNIHQQGRAATNSHHGGAGAMETRSRHSSYPAGTEEDEGMEEELSPFRGRSRSAPPNLWAAQRYGRELRRMSDEFEGSFKGLPRPKSAGTATQMRQSAGWTRIIQSWWDRNLGKGGSTPSQ
Consider B2, for which, in test [1], the binding result is given as “no binding”.

B3: BAD, endogenous in WT fibroblasts (protein, UniProt Q61337 1-204)
chain: MGTPKQPSLAPAHALGLRKSDPGIRSLGSDAGGRRWRPAAQSMFQIPEFEPSEQEDASATDRGLGPSLTEDQPGPYLAPGLLGSNIHQQGRAATNSHHGGAGAMETRSRHSSYPAGTEEDEGMEEELSPFRGRSRSAPPNLWAAQRYGRELRRMSDEFEGSFKGLPRPKSAGTATQMRQSAGWTRIIQSWWDRNLGKGGSTPSQ
On to B3, for which the binding entry in test [2] is on record as “no binding”.
